# Measured values from the supplement of paper PMC8728848.
# This is one part of the list.
# B1: ArathEULS3 TAP (Arabidopsis thaliana) (protein)
# chain: IDENLYFQGGSMDEKTTGWRGGHVVEGLAGELEQLRARLEHHPQGQREPGGGGSLEITSLYKKAGFMEHHHQHHRHHQRDDGEDDRQSFGVPPPHVDAPPQPHGLYQSQPHFDPYAPTPQAPAPYRSETQFEPHAPPPYRSEPYFETPAPPPSFGHVSHVGHQSPNESYPPEHHRYGGYQQPSNSLLESHGDHSGVTHVAHHSSNQPQSSSGVYHKPDENRLPDNLAGLAGRATVKVYSKAEPNYNLTIRDGKVILAPADPSDEAQHWYKDEKYSTKVKDADGHPCFALVNKATGEAMKHSVGATHPVHLIRYVPDKLDESVLWTESKDFGDGYRTIRMVNNTRLNVDAYHGDSKSGGVRDGTTIVLWDWNKGDNQLWKIFPF
# Legend:
# Test in all cases: glycan array binding signal (z-score within array); higher = stronger binding
# Settings in all cases: glycan notation: IUPAC condensed, linker removed
# Gal(b1-4)Glc = biological target: Gal(b1-4)Glc
# In short: (§1)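 Glycan array binding is given as a within-array Z-score, which can be read as non-binding when negative. The arrays, 3228 of them, came from the Consortium for Functional Glycomics database and were retained only where the protein sequence was available. Z-scores were averaged across arrays of the same protein sequence at different concentrations or buffers and across linkers.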
# Gal(b1-4)Glc6S = biological target: Gal(b1-4)Glc6S
# In short: as §1
# Gal(b1-4)GlcNAc = biological target: Gal(b1-4)GlcNAc
# In short: as §1
# [1] = biological target: Gal(b1-4)GlcNAc(a1-6)Gal(b1-4)GlcNAc
# In short: as §1
# Gal(b1-4)GlcNAc(b1-2)Man = biological target: Gal(b1-4)GlcNAc(b1-2)Man
# In short: as §1
# [2] = biological target: Gal(b1-4)GlcNAc(b1-2)Man(a1-3)Man(b1-4)GlcNAc(b1-4)GlcNAc
# In short: as §1
# [3] = biological target: Gal(b1-4)GlcNAc(b1-2)Man(a1-3)[Gal(b1-4)GlcNAc(b1-2)Man(a1-6)]Man(b1-4)GlcNAc(b1-4)GlcNAc
# In short: as §1
# [4] = biological target: Gal(b1-4)GlcNAc(b1-2)Man(a1-3)[Gal(b1-4)GlcNAc(b1-2)Man(a1-6)]Man(b1-4)GlcNAc(b1-4)[Fuc(a1-6)]GlcNAc
# In short: as §1
# [5] = biological target: Gal(b1-4)GlcNAc(b1-2)Man(a1-3)[Gal(b1-4)GlcNAc(b1-2)Man(a1-6)][Gal(b1-4)GlcNAc(b1-4)]Man(b1-4)GlcNAc(b1-4)[Fuc(a1-6)]GlcNAc
# In short: as §1
# [6] = biological target: Gal(b1-4)GlcNAc(b1-2)Man(a1-3)[Gal(b1-4)GlcNAc(b1-2)Man(a1-6)][GlcNAc(b1-4)]Man(b1-4)GlcNAc(b1-4)[Fuc(a1-6)]GlcNAc
# In short: as §1
# [7] = biological target: Gal(b1-4)GlcNAc(b1-2)Man(a1-3)[GlcNAc(b1-2)Man(a1-6)]Man(b1-4)GlcNAc(b1-4)GlcNAc
# In short: as §1
# [8] = biological target: Gal(b1-4)GlcNAc(b1-2)Man(a1-3)[GlcNAc(b1-4)][Gal(b1-4)GlcNAc(b1-2)Man(a1-6)]Man(b1-4)GlcNAc(b1-4)GlcNAc
# In short: as §1
# [9] = biological target: Gal(b1-4)GlcNAc(b1-2)Man(a1-3)[Man(a1-6)]Man(b1-4)GlcNAc(b1-4)GlcNAc
# In short: as §1
# [10] = biological target: Gal(b1-4)GlcNAc(b1-2)Man(a1-6)Man(b1-4)GlcNAc(b1-4)GlcNAc
# In short: as §1
# [11] = biological target: Gal(b1-4)GlcNAc(b1-2)Man(a1-6)[GlcNAc(b1-2)Man(a1-3)]Man(b1-4)GlcNAc(b1-4)GlcNAc
# In short: as §1
# [12] = biological target: Gal(b1-4)GlcNAc(b1-2)Man(a1-6)[Man(a1-3)]Man(b1-4)GlcNAc(b1-4)GlcNAc
# In short: as §1
# [13] = biological target: Gal(b1-4)GlcNAc(b1-2)[Gal(b1-4)GlcNAc(b1-4)]Man(a1-3)[Gal(b1-4)GlcNAc(b1-2)Man(a1-6)]Man(b1-4)GlcNAc(b1-4)GlcNAc
# In short: as §1
# [14] = biological target: Gal(b1-4)GlcNAc(b1-2)[Gal(b1-4)GlcNAc(b1-4)]Man(a1-3)[Gal(b1-4)GlcNAc(b1-2)[Gal(b1-4)GlcNAc(b1-6)]Man(a1-6)]Man(b1-4)GlcNAc(b1-4)GlcNAc
# In short: as §1
# [15] = biological target: Gal(b1-4)GlcNAc(b1-2)[Gal(b1-4)GlcNAc(b1-4)]Man(a1-3)[GlcNAc(b1-4)][Gal(b1-4)GlcNAc(b1-2)Man(a1-6)]Man(b1-4)GlcNAc(b1-4)GlcNAc
# In short: as §1
# [16] = biological target: Gal(b1-4)GlcNAc(b1-2)[Gal(b1-4)GlcNAc(b1-4)]Man(a1-3)[GlcNAc(b1-4)][Gal(b1-4)GlcNAc(b1-2)[Gal(b1-4)GlcNAc(b1-6)]Man(a1-6)]Man(b1-4)GlcNAc(b1-4)GlcNAc
# In short: as §1
# [17] = biological target: Gal(b1-4)GlcNAc(b1-2)[Gal(b1-4)GlcNAc(b1-6)]Man(a1-6)[Gal(b1-4)GlcNAc(b1-2)Man(a1-3)]Man(b1-4)GlcNAc(b1-4)GlcNAc
# In short: as §1
# [18] = biological target: Gal(b1-4)GlcNAc(b1-2)[Gal(b1-4)GlcNAc(b1-6)]Man(a1-6)[Gal(b1-4)GlcNAc(b1-2)Man(a1-3)]Man(b1-4)GlcNAc(b1-4)[Fuc(a1-6)]GlcNAc
# In short: as §1
# [19] = biological target: Gal(b1-4)GlcNAc(b1-2)[Gal(b1-4)GlcNAc(b1-6)]Man(a1-6)[GlcNAc(b1-4)][Gal(b1-4)GlcNAc(b1-2)Man(a1-3)]Man(b1-4)GlcNAc(b1-4)GlcNAc
# In short: as §1
# [20] = biological target: Gal(b1-4)GlcNAc(b1-2)[Gal(b1-4)GlcNAc(b1-6)]Man(a1-6)[GlcNAc(b1-4)][Gal(b1-4)GlcNAc(b1-2)[Gal(b1-4)GlcNAc(b1-4)]Man(a1-3)]Man(b1-4)GlcNAc(b1-4)[Fuc(a1-6)]GlcNAc
# In short: as §1
# [21] = biological target: Gal(b1-4)GlcNAc(b1-3)Gal(b1-3)GalNAc
# In short: as §1
# [22] = biological target: Gal(b1-4)GlcNAc(b1-3)Gal(b1-3)GlcNAc
# In short: as §1
# [23] = biological target: Gal(b1-4)GlcNAc(b1-3)Gal(b1-4)Glc
# In short: as §1
# [24] = biological target: Gal(b1-4)GlcNAc(b1-3)Gal(b1-4)GlcNAc
# In short: as §1
# [25] = biological target: Gal(b1-4)GlcNAc(b1-3)Gal(b1-4)GlcNAc(b1-2)Man(a1-3)[Gal(b1-4)GlcNAc(b1-3)Gal(b1-4)GlcNAc(b1-2)Man(a1-6)]Man(b1-4)GlcNAc(b1-4)GlcNAc
# In short: as §1
# [26] = biological target: Gal(b1-4)GlcNAc(b1-3)Gal(b1-4)GlcNAc(b1-2)Man(a1-3)[Gal(b1-4)GlcNAc(b1-3)Gal(b1-4)GlcNAc(b1-2)Man(a1-6)]Man(b1-4)GlcNAc(b1-4)[Fuc(a1-6)]GlcNAc
# In short: as §1
# [27] = biological target: Gal(b1-4)GlcNAc(b1-3)Gal(b1-4)GlcNAc(b1-2)[Gal(b1-4)GlcNAc(b1-3)Gal(b1-4)GlcNAc(b1-6)]Man(a1-6)[Gal(b1-4)GlcNAc(b1-3)Gal(b1-4)GlcNAc(b1-2)Man(a1-3)]Man(b1-4)GlcNAc(b1-4)GlcNAc
# In short: as §1
# [28] = biological target: Gal(b1-4)GlcNAc(b1-3)Gal(b1-4)GlcNAc(b1-2)[Gal(b1-4)GlcNAc(b1-3)Gal(b1-4)GlcNAc(b1-6)]Man(a1-6)[Gal(b1-4)GlcNAc(b1-3)Gal(b1-4)GlcNAc(b1-2)Man(a1-3)]Man(b1-4)GlcNAc(b1-4)[Fuc(a1-6)]GlcNAc
# In short: as §1
# [29] = biological target: Gal(b1-4)GlcNAc(b1-3)Gal(b1-4)GlcNAc(b1-3)Gal(b1-4)GlcNAc
# In short: as §1
# [30] = biological target: Gal(b1-4)GlcNAc(b1-3)Gal(b1-4)GlcNAc(b1-3)Gal(b1-4)GlcNAc(b1-2)Man(a1-3)[Gal(b1-4)GlcNAc(b1-3)Gal(b1-4)GlcNAc(b1-3)Gal(b1-4)GlcNAc(b1-2)Man(a1-6)]Man(b1-4)GlcNAc(b1-4)GlcNAc
# In short: as §1
# [31] = biological target: Gal(b1-4)GlcNAc(b1-3)Gal(b1-4)GlcNAc(b1-3)Gal(b1-4)GlcNAc(b1-2)Man(a1-3)[Gal(b1-4)GlcNAc(b1-3)Gal(b1-4)GlcNAc(b1-3)Gal(b1-4)GlcNAc(b1-2)Man(a1-6)]Man(b1-4)GlcNAc(b1-4)[Fuc(a1-6)]GlcNAc
# In short: as §1
# [32] = biological target: Gal(b1-4)GlcNAc(b1-3)Gal(b1-4)GlcNAc(b1-3)Gal(b1-4)GlcNAc(b1-2)[Gal(b1-4)GlcNAc(b1-3)Gal(b1-4)GlcNAc(b1-3)Gal(b1-4)GlcNAc(b1-6)]Man(a1-6)[Gal(b1-4)GlcNAc(b1-3)Gal(b1-4)GlcNAc(b1-3)Gal(b1-4)GlcNAc(b1-2)Man(a1-3)]Man(b1-4)GlcNAc(b1-4)[Fuc(a1-6)]GlcNAc
# In short: as §1
# [33] = biological target: Gal(b1-4)GlcNAc(b1-3)Gal(b1-4)GlcNAc(b1-3)Gal(b1-4)GlcNAc(b1-3)Gal(b1-4)GlcNAc(b1-2)Man(a1-3)[Gal(b1-4)GlcNAc(b1-3)Gal(b1-4)GlcNAc(b1-3)Gal(b1-4)GlcNAc(b1-3)Gal(b1-4)GlcNAc(b1-2)Man(a1-6)]Man(b1-4)GlcNAc(b1-4)GlcNAc
# In short: as §1
binder,measurement,setting,value
B1,glycan array binding signal (z-score),Gal(b1-4)Glc,-0.775
same,glycan array binding signal (z-score),Gal(b1-4)Glc6S,-0.531
same,glycan array binding signal (z-score),Gal(b1-4)GlcNAc,-0.414
same,glycan array binding signal (z-score),[1],-0.212
same,glycan array binding signal (z-score),Gal(b1-4)GlcNAc(b1-2)Man,0.74
same,glycan array binding signal (z-score),[2],-0.313
same,glycan array binding signal (z-score),[3],-0.791
same,glycan array binding signal (z-score),[4],0.949
same,glycan array binding signal (z-score),[5],-0.179
same,glycan array binding signal (z-score),[6],1.54
same,glycan array binding signal (z-score),[7],-2.08
same,glycan array binding signal (z-score),[8],-0.43
same,glycan array binding signal (z-score),[9],0.249
same,glycan array binding signal (z-score),[10],1.23
same,glycan array binding signal (z-score),[11],-0.574
same,glycan array binding signal (z-score),[12],-0.463
same,glycan array binding signal (z-score),[13],1.09
same,glycan array binding signal (z-score),[14],-0.621
same,glycan array binding signal (z-score),[15],-1.15
same,glycan array binding signal (z-score),[16],-1.11
same,glycan array binding signal (z-score),[17],1.52
same,glycan array binding signal (z-score),[18],0.941
same,glycan array binding signal (z-score),[19],-0.08
same,glycan array binding signal (z-score),[20],-0.876
same,glycan array binding signal (z-score),[21],-1.84
same,glycan array binding signal (z-score),[22],-0.688
same,glycan array binding signal (z-score),[23],-0.967
same,glycan array binding signal (z-score),[24],-1.63
same,glycan array binding signal (z-score),[25],0.323
same,glycan array binding signal (z-score),[26],0.22
same,glycan array binding signal (z-score),[27],-0.575
same,glycan array binding signal (z-score),[28],1.91
same,glycan array binding signal (z-score),[29],0.391
same,glycan array binding signal (z-score),[30],-0.371
same,glycan array binding signal (z-score),[31],1.89
same,glycan array binding signal (z-score),[32],1.18
same,glycan array binding signal (z-score),[33],0.564

# As a short view, some entries already given:
binder,measurement,setting,value
B1,glycan array binding signal (z-score),[25],0.323
same,glycan array binding signal (z-score),[26],0.22
same,glycan array binding signal (z-score),[27],-0.575
